Earlier results as cited in article PMC3121697, “Predicting Binding to P-Glycoprotein by Flexible Receptor Docking” (PLoS Computational Biology, 2011).
Read-outs that look alike come from different tables or passages of the source.

Test system: P-gp
Details: cited from earlier work
[1] = Table S4, Doan et al. dataset, both assays positive or both negative

Row | SMILES | P-gp interaction [1] | P-gp interaction (not told)
1 | CC(C)NC[C@H](O)COc1ccc(CC(N)=O)cc1 [(S)-Atenolol] | N | 
2 | O=C1CN=C(c2ccccc2)c2cc(Cl)ccc2N1 [Nordazepam] |  | N
3 | CCN(CC)CC(=O)Nc1c(C)cccc1C [Lidocaine] | N | 
4 | CC(C)NC[C@@H](O)COc1ccc(CC(N)=O)cc1 [(R)-Atenolol] | N | 
